Patent publication US9962334B2, “Ophthalmic device having therapeutic agent delivery capability and method of forming same” (Novartis AG, priority 2008, dated 2018)

Assay: Drug loading of A1 and A2 discs with nepafenac or diclofenac sodium
Conditions: 2.5 mg/mL drug solution, 4 hours soak

**Q.** With `O=C(O)Cc1ccccc1Nc1c(Cl)cccc1Cl` [Diclofenac Sodium] as the compound, how does the “amount of drug picked up by A1 and A2 materials” value read?
**A.** Its value is “limited”.

**Q.** With `NC(=O)Cc1cccc(C(=O)c2ccccc2)c1N` [Nepafenac] as the compound, how does the “amount of drug picked up by A1 and A2 materials” value read?
**A.** The value was “high amount”.

Assay: Release of therapeutic agent from loaded acrylate lenses over 7 days (HPLC)
Conditions: ACRYSOFT II acrylate lens soaked 90 minutes in 3 mg/ml acetone drug solution; 0.5 ml water, 37° C., medium replaced every 24 hours; total after 7 days

**Q.** With `O=C1O[C@H]([C@@H](O)CO)C(O)=C1O` [Ascorbic Acid] as the compound, how does the 7 days release read?
**A.** The 7 days release was 0.0 µg.

**Q.** With `CC(=O)Oc1ccccc1C(=O)O` [Aspirin] as the compound, how does the 7 days release read?
**A.** Its 7 days release is 0.0 µg.

**Q.** Which 7 days release does the source give for `COc1cc2c(c(OC)c1OC)-c1ccc(OC)c(=O)cc1[C@@H](NC(C)=O)CC2` [Colchicine] here?
**A.** Its 7 days release is 0.1 µg.

**Q.** With `O=C(c1ccccc1)c1ccc2n1CCC2C(=O)O` (stereo not shown) [Ketorolac] as the compound, how does the 7 days release read?
**A.** Its 7 days release is 0.3 µg.

**Q.** With `NC(=O)Cc1cccc(C(=O)c2ccccc2)c1N` [Nepafenac] as the compound, how does the 7 days release read?
**A.** Its 7 days release is 5.9 µg.
